In article PMC9581156 one finds binding data, which are given here for 1 molecule.

For this test, the target named is GFP-tagged EV71 3A protein (expressed in RD cells) (human enterovirus 71 (EV71)). The experiment in a line: affinity purification with mass spectrometry; RD cells transfected with GFP or GFP-3A; lysates immunoprecipitated with anti-GFP antibody; SDS-PAGE, Coomassie staining; precipitated proteins analysed by mass spectrometry.

No constants are given. Whether binding was seen depends on the method and setting. In cells and extracts the contact can be indirect. Here binding means that the protein was enriched with, or labelled near, the bait; the list need not be complete.

B1: Vacuolar protein sorting 25 (endogenous) (protein, UniProt Q9BRG1 1-176)
chain: MAMSFEWPWQYRFPPFFTLQPNVDTRQKQLAAWCSLVLSFCRLHKQSSMTVMEAQESPLFNNVKLQRKLPVESIQIVLEELRKKGNLEWLDKSKSSFLIMWRRPEEWGKLIYQWVSRSGQNNSVFTLYELTNGEDTEDEEFHGLDEATLLRALQALQQEHKAEIITVSDGRGVKFF
In the case of B1, the binding entry was “binds”.
